# Experimental data reported in PubChem BioAssay AID2685 (National Center for Advancing Translational Sciences (NCATS), 2010).
# This is one part of the list. The main result of the screen is listed elsewhere. These columns were measured beside it and carry no call. Compounds called inactive in the main read-out are mostly missing here. The note in brackets gives the kind of curve behind each potency; many fits are weak.
# Assay: qHTS Assay for Lipid Storage Modulators in Drosophila S3 Cells;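 for cell number change: cells counted by Cell Tracker Red CMTPX staining in the red channel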
# Conditions: BODIPY lipid droplet fluorescence, 18-24 h; for cell number change: measured here: cell count max response, cells fed with added oleic acid
# How it was run: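 Laser-scanning cytometry quantifies lipid droplet accumulation (500–530 nm total intensity; droplet/cell object ratio) in oleic acid-fed (400 uM added) Drosophila S3 cells treated with a concentration series. 20 uM Triacsin C defined 100% inhibition.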
# [1] = measured here: lipid fluorescence (Fed channel) AC50, cells fed with added oleic acid
# [2] = measured here: cell number channel AC50, cells fed with added oleic acid
SMILES,cell number change [%],AC50 [1],AC50 [2]
Cc1c(C(=O)N2CCOCC2)sc(NC(=O)Cc2ccccc2)c1C#N,16.1,"0.00651 µM [rising, full curve, poor fit]",–
Cc1cc(C)c(NC(=O)Cn2c(=O)n(Cc3ccco3)c(=O)c3ccccc32)c(C)c1,–,–,"0.082 µM [rising, full curve, poor fit]"
O=C(CNCCCO)Nc1cc(C(F)(F)F)cc(NC(=O)CNCCCO)c1Cl,34.3,"0.517 µM [falling, full curve]","23.1 µM [rising, single point]"
COc1ccc(N2CCN(c3nc4ccccc4nc3NS(=O)(=O)c3ccccc3)CC2)cc1,46.6,"6.51 µM [rising, partial curve]","2.31 µM [rising, partial curve, poor fit]"
COCCCNC(=O)CCc1c(C)nc2c(c(C)nn2-c2ccc(C)cc2)c1C,–,–,"0.411 µM [falling, single point]"
COc1ccc(CSCC(=O)N/N=C/c2ccc(OCC(=O)N3CCCCC3)cc2)cc1,16.5,"6.51 µM [rising, single point]",–
CCS(=O)(=O)NCC(c1ccco1)N1CCN(c2ccc(F)cc2)CC1 (stereo unspecified),30.9,–,"32.6 µM [rising, single point]"
COc1ccc(CNC(=O)CCS(=O)(=O)c2ccc3c(c2)CCN3C(C)=O)cc1,-28.1,"0.517 µM [rising, partial curve, poor fit]",–
COc1ccc(Cl)cc1C(=O)Nc1nc2ccccc2[nH]1,13.1,"6.51 µM [rising, single point]",–
COc1ccc(NC(=O)CN(C)C(=O)c2ccc(COc3ccccc3)o2)cc1,-11.3,–,–
Cc1ccc(C(=O)COC(=O)c2n[nH]c(=O)c3ccccc23)cc1,-7.82,"0.731 µM [falling, single point]",–
O=C(NC(=S)Nc1ccccc1)c1csnn1,–,"1.46 µM [rising, partial curve]",–
FC(F)(F)C(Oc1nc(NC2CCCCC2)nc(N2CCOCC2)n1)C(F)(F)F,-14.1,"25.9 µM [falling, partial curve]",–
Nc1ncn(C(=O)c2ccco2)n1,-59.6,"14.6 µM [falling, partial curve]","29.1 µM [falling, single point]"
O=C(CCN1CCN(C/C=C/c2ccccc2)CC1)Nc1ccccc1F,33.2,–,"23.1 µM [rising, single point]"
Cc1ccc([N+](=O)[O-])cc1N(CC(=O)Nc1ccc(S(=O)(=O)Nc2cccc(C(F)(F)F)c2)cc1)S(C)(=O)=O,-47.7,"2.31 µM [falling, partial curve]","18.4 µM [falling, partial curve]"
O=C(Cn1nc(-c2ccccc2)ccc1=O)Nc1cccc(NC(=O)c2ccccn2)c1,-59.6,–,"7.31 µM [falling, partial curve]"
COc1ccc(C(=O)CCC(=O)Nc2cccc(Cl)c2)cc1,39.5,–,"29.1 µM [rising, single point]"
CCOC(=O)C(NC(C)=O)(Nc1ccc(S(=O)(=O)Nc2nccs2)cc1)C(F)(F)F (stereo unspecified),-31.5,"4.61 µM [falling, full curve, poor fit]","1.03 µM [falling, full curve]"

# Part of the list above, as tab-separated lines:
SMILES	cell number change [%]	AC50 [1]	AC50 [2]
Cc1cc(C)c(NC(=O)Cn2c(=O)n(Cc3ccco3)c(=O)c3ccccc32)c(C)c1	–	–	0.082 µM [rising, full curve, poor fit]
O=C(CNCCCO)Nc1cc(C(F)(F)F)cc(NC(=O)CNCCCO)c1Cl	34.3	0.517 µM [falling, full curve]	23.1 µM [rising, single point]
COc1ccc(N2CCN(c3nc4ccccc4nc3NS(=O)(=O)c3ccccc3)CC2)cc1	46.6	6.51 µM [rising, partial curve]	2.31 µM [rising, partial curve, poor fit]

# Next compounds

SMILES,cell number change [%],AC50 [1],AC50 [2]
O=C(NCc1ccc2c(c1)OCO2)c1ccc(CS(=O)(=O)c2cccc(C(F)(F)F)c2)o1,-18.4,"5.8 µM [falling, partial curve]",–
O=C(N/C(=C\c1ccccc1)C(=O)N1CCOCC1)c1ccc(Br)o1,22.5,"1.16 µM [rising, single point]",–
CCOc1ccc(S(=O)(=O)NCCC(=O)NCC(c2cccs2)N(C)C)cc1 (stereo unspecified),-3.06,"6.51 µM [falling, single point]","6.51 µM [falling, single point]"
CCCCNC(=S)N=Nc1c(O)n(Cc2ccccc2)c2ccccc12,-25.4,"18.4 µM [falling, single point]",–
COc1cccc(OC)c1OCCCCc1c(C)n[nH]c1C,21.4,"0.0058 µM [rising, full curve, poor fit]",–
CC(=O)Nc1cccc(C(=O)Oc2cccc(C)c2)c1O,-12.2,"11.6 µM [falling, partial curve]",–
CCC(C)c1ccccc1N1CC(C(=O)Nc2cccc(S(=O)(=O)N3CCOCC3)c2)CC1=O (stereo unspecified),-8.74,–,–
Cc1cc(C(=O)CSc2nc3ccccc3c(=O)n2C)c(C)n1Cc1ccc2c(c1)OCO2,-3.96,"6.51 µM [falling, single point]","0.58 µM [falling, full curve]"
CCc1ccc(C(C)NC(=O)c2ccc(F)cc2)cc1 (stereo unspecified),5.41,"1.03 µM [falling, full curve]",–
CC1Sc2ccc(S(=O)(=O)CCC(=O)NCc3ccccc3)cc2NC1=O (stereo unspecified),29.7,–,"4.11 µM [rising, full curve, poor fit]"
CC(C)n1c(O)c(N=NC(=O)Cc2csc(N3CCOCC3)n2)c2ccccc21,31.4,"9.2 µM [rising, partial curve]","5.17 µM [rising, single point]"
O=C(CNC(=O)c1[nH]cnc1C(=O)N[C@@H](Cc1ccccc1)C(=O)OCc1ccccc1)OCc1ccccc1,8.38,–,–
O=C(O)C1CCN(C(=O)COc2ccc(Br)cc2)CC1,9.2,–,–
Cc1cc(C)c(-c2cc(NC(=O)COC(=O)c3ccc(C#N)cc3)n(-c3ccccc3)n2)cc1C,29.4,"1.46 µM [rising, full curve]",–
CC(C)OC(=O)CC1=NC(=O)CS1,1.66,"0.326 µM [falling, full curve]",–
CCc1c(C)sc(NC(=O)CCc2ccc(OC)cc2)c1C(N)=O,–,"18.4 µM [rising, partial curve]",–
CCCOc1ccc(-c2cn3ccccc3n2)cc1[N+](=O)[O-],3.58,"0.82 µM [rising, full curve]","0.651 µM [falling, single point]"
CCCn1cc(SCC(=O)Nc2cc(C)on2)c2ccccc21,30.2,–,–
COC(=O)c1ccc(NC(=O)CN2C(=O)CCC2=O)cc1,-23.4,–,"0.00411 µM [falling, full curve, poor fit]"

SMILES,cell number change [%],AC50 [1],AC50 [2]
O=C(O)/C=C/c1cn(-c2ncc(C(F)(F)F)cc2Cl)c2ccccc12,15.8,–,–
Cc1sc2ncnc(N3CCCCC3)c2c1C,-17.1,–,"0.651 µM [falling, partial curve, poor fit]"
O=C(CCc1ccccc1)N/N=C\c1cc2c(cc1Br)OCO2,-38.1,"29.1 µM [falling, single point]","32.6 µM [falling, single point]"
CC1CCN(C(=O)CCc2ccc(Oc3cc([N+](=O)[O-])cc([N+](=O)[O-])c3)cc2)CC1,119,"29.1 µM [rising, partial curve, poor fit]","29.1 µM [rising, partial curve, poor fit]"
CC/C(=N/Nc1cccc(Cl)c1)c1cnnc(SC)n1,-24.9,"0.0231 µM [falling, full curve, poor fit]","0.326 µM [falling, full curve, poor fit]"
O=C(O)c1ccc2nc(-c3ccccc3)sc2c1,10.9,"4.61 µM [rising, full curve, poor fit]",–
Cc1ccsc1C(=O)N1CC(=O)Nc2ccccc21,10.7,"0.00517 µM [rising, full curve, poor fit]",–
Cc1ccc(S(=O)(=O)NCc2cn3ccsc3n2)c(C)c1,-14.6,–,–
NS(=O)(=O)c1ccc(N2N=C(c3ccc(Br)cc3)CC2c2ccc(F)cc2)cc1 (stereo unspecified),-83.9,"29.1 µM [falling, single point]","23.1 µM [falling, single point]"
Cc1ccc(CN2CC(C(=O)N3CCN(S(=O)(=O)c4ccccc4)CC3)CC2=O)cc1 (stereo unspecified),18.5,–,–
Cc1cc(C)n(-c2nc(NCC3CCCO3)c3c4c(sc3n2)COC(C)(C)C4)n1 (stereo unspecified),–,"0.58 µM [rising, single point]","1.3 µM [rising, full curve]"
COc1cc2c(cc1NC(=O)c1cccnc1)oc1ccccc12,92.2,"1.64 µM [rising, partial curve]","3.26 µM [rising, full curve]"
COc1ncccc1C(=O)N1CCCC(C(=O)c2cccc(OC(C)C)c2)C1 (stereo unspecified),-35.4,"23.1 µM [falling, single point]","29.1 µM [falling, single point]"
Cc1c(NC(=O)c2nn(CC(C)C)c(=O)c3ccccc23)c(=O)n(-c2ccccc2)n1C,-33.9,"0.291 µM [falling, full curve]","20.6 µM [falling, single point]"
CC(=O)c1ccc(NC(=O)[C@@H]2CCCN2C2=NS(=O)(=O)c3ccccc32)cc1,16.7,"13 µM [rising, partial curve, poor fit]",–
Cc1sc2ncnc(N3CCN(C(=O)c4ccco4)CC3)c2c1C,-34.2,–,"20.6 µM [falling, single point]"
c1ccc(OCc2nnc(-c3ccccc3)o2)cc1,54.6,"4.11 µM [rising, full curve, poor fit]","4.61 µM [rising, full curve]"
CON/C=N/C(=S)Nc1ncc(C(F)(F)F)cc1Cl,20.1,–,–
